Experimental findings from patent US20110245145A1 are described below.

The chains behind the UniProt entries cited, without tags or fusion partners. Residues count along the entry.
UniProt P06213, residues 28-1382: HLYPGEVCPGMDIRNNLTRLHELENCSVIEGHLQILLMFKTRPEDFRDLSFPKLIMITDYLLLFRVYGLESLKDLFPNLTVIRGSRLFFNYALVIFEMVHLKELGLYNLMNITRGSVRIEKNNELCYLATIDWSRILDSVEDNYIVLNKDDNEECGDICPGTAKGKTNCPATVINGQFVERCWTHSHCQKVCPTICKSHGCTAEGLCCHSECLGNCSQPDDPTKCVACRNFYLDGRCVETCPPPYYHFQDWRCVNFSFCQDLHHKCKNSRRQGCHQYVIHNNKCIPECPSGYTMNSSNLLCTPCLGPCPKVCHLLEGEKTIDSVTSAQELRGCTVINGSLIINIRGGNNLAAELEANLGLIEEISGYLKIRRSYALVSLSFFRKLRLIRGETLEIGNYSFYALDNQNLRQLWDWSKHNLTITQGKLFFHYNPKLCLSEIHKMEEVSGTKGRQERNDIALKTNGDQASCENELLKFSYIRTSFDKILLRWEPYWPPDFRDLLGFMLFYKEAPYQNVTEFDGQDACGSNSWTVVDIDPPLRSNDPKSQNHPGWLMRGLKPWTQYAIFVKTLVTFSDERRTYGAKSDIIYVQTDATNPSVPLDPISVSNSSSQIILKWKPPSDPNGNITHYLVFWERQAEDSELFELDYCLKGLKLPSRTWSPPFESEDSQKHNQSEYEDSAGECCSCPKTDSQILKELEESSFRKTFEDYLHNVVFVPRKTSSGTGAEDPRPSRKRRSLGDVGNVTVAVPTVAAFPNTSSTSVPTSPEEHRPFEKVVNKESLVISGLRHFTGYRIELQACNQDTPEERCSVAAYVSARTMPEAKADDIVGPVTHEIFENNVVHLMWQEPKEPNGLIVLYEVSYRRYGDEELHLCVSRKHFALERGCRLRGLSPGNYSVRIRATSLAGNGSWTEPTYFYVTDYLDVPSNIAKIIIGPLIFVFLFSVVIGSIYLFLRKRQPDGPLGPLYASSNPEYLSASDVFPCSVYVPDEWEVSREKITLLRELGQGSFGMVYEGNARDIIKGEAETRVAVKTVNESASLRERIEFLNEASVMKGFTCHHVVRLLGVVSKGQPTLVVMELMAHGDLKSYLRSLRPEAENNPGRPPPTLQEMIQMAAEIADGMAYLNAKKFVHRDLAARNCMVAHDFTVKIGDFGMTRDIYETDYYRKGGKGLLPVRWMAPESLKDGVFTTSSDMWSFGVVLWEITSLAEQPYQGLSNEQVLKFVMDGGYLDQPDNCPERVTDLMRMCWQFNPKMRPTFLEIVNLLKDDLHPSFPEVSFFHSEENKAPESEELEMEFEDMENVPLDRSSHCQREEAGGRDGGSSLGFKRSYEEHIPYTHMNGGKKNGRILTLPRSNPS
UniProt P15208, residues 28-1372: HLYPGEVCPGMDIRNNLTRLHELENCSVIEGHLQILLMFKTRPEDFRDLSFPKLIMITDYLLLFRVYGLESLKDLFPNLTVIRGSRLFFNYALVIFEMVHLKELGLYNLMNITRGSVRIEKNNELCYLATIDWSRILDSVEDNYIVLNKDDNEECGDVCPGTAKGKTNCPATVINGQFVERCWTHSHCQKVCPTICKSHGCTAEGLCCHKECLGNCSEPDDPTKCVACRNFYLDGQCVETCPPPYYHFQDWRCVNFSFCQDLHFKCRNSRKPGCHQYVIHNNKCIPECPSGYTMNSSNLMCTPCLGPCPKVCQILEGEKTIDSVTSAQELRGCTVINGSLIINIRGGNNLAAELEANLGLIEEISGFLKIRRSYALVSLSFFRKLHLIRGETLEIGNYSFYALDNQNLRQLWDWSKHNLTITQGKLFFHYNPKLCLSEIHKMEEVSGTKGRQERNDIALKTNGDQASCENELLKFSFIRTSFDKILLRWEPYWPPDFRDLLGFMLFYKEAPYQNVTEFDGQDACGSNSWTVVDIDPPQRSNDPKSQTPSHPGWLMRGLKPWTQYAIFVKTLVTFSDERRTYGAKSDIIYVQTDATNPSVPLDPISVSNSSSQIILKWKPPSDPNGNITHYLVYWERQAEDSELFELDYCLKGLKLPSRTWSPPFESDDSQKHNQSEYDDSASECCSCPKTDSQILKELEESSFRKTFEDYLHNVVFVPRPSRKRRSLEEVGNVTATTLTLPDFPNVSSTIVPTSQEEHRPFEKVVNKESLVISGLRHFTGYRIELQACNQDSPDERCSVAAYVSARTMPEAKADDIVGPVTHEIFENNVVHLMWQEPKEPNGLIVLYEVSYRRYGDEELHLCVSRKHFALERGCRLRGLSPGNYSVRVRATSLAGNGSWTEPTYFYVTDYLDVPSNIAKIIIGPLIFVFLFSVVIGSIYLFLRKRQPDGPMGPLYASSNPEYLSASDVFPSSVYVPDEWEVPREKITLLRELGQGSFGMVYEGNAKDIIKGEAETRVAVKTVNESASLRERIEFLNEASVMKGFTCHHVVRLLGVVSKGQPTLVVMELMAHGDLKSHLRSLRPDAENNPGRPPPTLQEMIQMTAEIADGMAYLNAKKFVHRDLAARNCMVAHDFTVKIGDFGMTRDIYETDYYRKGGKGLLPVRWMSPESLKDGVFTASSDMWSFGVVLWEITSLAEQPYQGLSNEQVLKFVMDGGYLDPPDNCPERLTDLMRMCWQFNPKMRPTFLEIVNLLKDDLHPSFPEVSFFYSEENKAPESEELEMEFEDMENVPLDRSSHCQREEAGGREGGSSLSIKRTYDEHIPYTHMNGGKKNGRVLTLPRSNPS
UniProt P31750: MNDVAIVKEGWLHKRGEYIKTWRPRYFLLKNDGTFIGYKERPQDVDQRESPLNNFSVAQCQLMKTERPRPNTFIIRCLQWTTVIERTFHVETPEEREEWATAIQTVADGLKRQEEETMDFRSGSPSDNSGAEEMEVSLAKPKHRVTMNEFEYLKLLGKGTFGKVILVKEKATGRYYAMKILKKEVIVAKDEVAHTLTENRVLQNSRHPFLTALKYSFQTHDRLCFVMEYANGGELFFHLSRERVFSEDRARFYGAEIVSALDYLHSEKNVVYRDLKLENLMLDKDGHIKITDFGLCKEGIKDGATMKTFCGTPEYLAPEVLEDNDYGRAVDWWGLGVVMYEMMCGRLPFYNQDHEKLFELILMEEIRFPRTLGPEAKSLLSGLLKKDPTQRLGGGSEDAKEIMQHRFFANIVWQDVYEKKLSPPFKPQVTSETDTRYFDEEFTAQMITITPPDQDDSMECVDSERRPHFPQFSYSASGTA
UniProt P32121: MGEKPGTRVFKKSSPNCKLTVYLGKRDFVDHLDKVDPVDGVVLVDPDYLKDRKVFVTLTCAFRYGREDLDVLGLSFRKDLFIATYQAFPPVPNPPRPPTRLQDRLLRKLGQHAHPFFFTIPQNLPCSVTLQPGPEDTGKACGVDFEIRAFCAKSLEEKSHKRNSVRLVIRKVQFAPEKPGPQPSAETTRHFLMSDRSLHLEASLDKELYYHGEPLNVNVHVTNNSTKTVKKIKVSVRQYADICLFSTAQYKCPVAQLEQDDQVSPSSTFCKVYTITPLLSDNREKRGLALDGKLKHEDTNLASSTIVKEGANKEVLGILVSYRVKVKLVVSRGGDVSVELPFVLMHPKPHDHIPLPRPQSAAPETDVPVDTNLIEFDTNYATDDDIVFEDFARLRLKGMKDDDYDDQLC
UniProt Q91YI4: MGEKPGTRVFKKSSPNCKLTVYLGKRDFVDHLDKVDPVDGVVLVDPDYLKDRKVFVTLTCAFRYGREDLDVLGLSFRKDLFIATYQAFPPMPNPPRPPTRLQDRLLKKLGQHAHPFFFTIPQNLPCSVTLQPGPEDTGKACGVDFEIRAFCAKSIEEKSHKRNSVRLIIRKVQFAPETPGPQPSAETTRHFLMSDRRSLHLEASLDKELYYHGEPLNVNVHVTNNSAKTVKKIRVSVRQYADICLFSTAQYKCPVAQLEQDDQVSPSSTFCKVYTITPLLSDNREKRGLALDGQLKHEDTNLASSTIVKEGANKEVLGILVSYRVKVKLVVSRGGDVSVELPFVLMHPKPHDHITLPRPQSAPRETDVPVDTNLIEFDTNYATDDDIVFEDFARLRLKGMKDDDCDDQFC

Test [1] concerns the target insulin receptor of Hep3B hepatocytes (human) (UniProt P06213). Briefly: immunoprecipitation with anti-IR, Hep3B with or without 100 nM Wortmannin, then 100 nM insulin.
In test [2] the target is insulin receptor (mouse liver, immunoprecipitated for IRβ) (mouse) (UniProt P15208). The test is described as follows: immunoprecipitation for IRβ, liver of insulin-injected mice.
The target of test [3] is endogenous Akt (mouse liver) (mouse) (UniProt P31750). The test is described as follows: co-immunoprecipitation, C57BL/6 mouse liver lysate.
Test [4] deals with insulin receptor (mouse liver, immunoprecipitated for IRβ) (mouse) (UniProt P15208). Briefly: immunoprecipitation for IRβ, liver of insulin-injected mice (FIG. 6B).
The target in test [5] is endogenous Akt (mouse liver) (mouse) (UniProt P31750). Briefly: co-immunoprecipitation, C57BL/6 mouse liver lysate (FIG. 5A).

Results are given in words; binding and its absence hold for the method and conditions named. For some assays here: Binding seen in cells or lysates may run through a third protein. Some results given as binding are weak or reduced against the parent protein; the word gives no strength.

With “endogenous βarrestin2 of Hep3B hepatocytes (from UniProt P32121 1-409)”, the binding result in test [1] is recorded as “binds”.

Take “endogenous βarrestin2 (mouse liver) (from UniProt Q91YI4 1-410)”: the binding result in test [2], in test [3], in test [4] and in test [5] was “binds” each time.
